Data source: PubChem BioAssay AID1259323 (Peter MacCallum Cancer Centre, 2017)

Screen: 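Kinase knock-downs that weaken TRPV4 calcium entry after PAR2 activation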 (primary screen)
Cells: human HEK293 cells stably carrying inducible TRPV4
Reagents: siRNA pool against human genes
Challenge: PAR2 activation; agonist identity and dose not given
Measurement: 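Real-time Fura-2 calcium after PAR2 activation; early peak and later plateau each as % of mock-transfected wells on the plate, mean of two plates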
Scale: TRPV4 plateau calcium, % of mock: higher = stronger sustained TRPV4 calcium entry than mock; PAR2 peak calcium, % of mock: higher = stronger early PAR2 calcium response than mock
Rule for the call: 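Active if plateau calcium is under 90% of mock and early peak calcium stays over 79% of mock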
Shown is a random part of 715 reagents tested. In the full data, 91 (13%) got an active call. 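Active pools lower the sustained TRPV4 phase but spare the early PAR2 peak; PAR2 agonist and dose are not stated; pools repeat across wells.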 No sequences are given here. Not given: the amount of reagent, the time to read-out.

no.	Target gene	TRPV4 plateau calcium, % of mock	PAR2 peak calcium, % of mock	call
1	TRIB1	101	106	inactive
2	TBCK	104	97.5	inactive
3	TAF1L	85.1	87.9	active
4	ACVR2A	97.9	99.7	inactive
5	MAP3K5	110	108	inactive
6	CDKL2	115	105	inactive
7	COASY	103	106	inactive
8	FGFR3	93.9	97.7	inactive
9	MAP3K8	97.4	95	inactive
10	IGF1R	86.1	85.3	active
11	TGFBR1	104	98.1	inactive
12	PFKM	98	98.1	inactive
13	ELP1	106	110	inactive
14	ITPKB	104	101	inactive
15	DGKG	97.9	97.6	inactive
16	NUCKS1	111	108	inactive
17	CDK19	96.7	93.8	inactive
18	SLK	94.7	92.4	inactive
19	PMVK	95.6	97.1	inactive
20	CAMK4	107	105	inactive
21	DYRK1B	106	102	inactive
22	NIM1K	100	97.2	inactive
23	EPHA2	101	102	inactive
24	NEK3	99.9	101	inactive
25	PFKFB3	111	106	inactive
26	PIK3C2G	95	91	inactive
27	IKBKG	93	95.5	inactive
28	MST1R	101	99.6	inactive
29	MAPK7	91.3	94.3	inactive
30	PEAK1	103	102	inactive
31	WNK4	85.9	99.5	active
32	STK17B	104	101	inactive
33	PTK2	114	104	inactive
34	SCYL3	90.1	90.4	inactive
35	EPHA6	95.3	93.3	inactive
36	DYRK4	102	105	inactive
37	STK25	87.9	91.3	active
38	BTK	101	95.9	inactive
39	PANK1	103	103	inactive
40	MAP3K1	94	93.6	inactive

9 entries already listed, ordered by “PAR2 peak calcium, % of mock”, highest first:
Target gene	TRPV4 plateau calcium, % of mock	PAR2 peak calcium, % of mock	call
PFKFB3	111	106	inactive
CAMK4	107	105	inactive
DYRK1B	106	102	inactive
EPHA2	101	102	inactive
NEK3	99.9	101	inactive
NIM1K	100	97.2	inactive
PMVK	95.6	97.1	inactive
CDK19	96.7	93.8	inactive
SLK	94.7	92.4	inactive

The list goes on:
no.	Target gene	TRPV4 plateau calcium, % of mock	PAR2 peak calcium, % of mock	call
41	SGK1	98.5	103	inactive
42	CPNE3	109	105	inactive
43	MAPKAPK2	89.2	91	active
44	ATM	93	104	inactive
45	MAP3K20	92.8	96.8	inactive
46	PIP5K1B	104	101	inactive
47	RAF1	103	97.6	inactive
48	PAK2	109	103	inactive
49	KCNH2	90.3	94.5	inactive
50	WNK3	92.2	98	inactive
51	FYN	98.2	103	inactive
52	ADCK2	103	104	inactive
53	AURKB	110	112	inactive
54	NME3	111	106	inactive
55	BRD3	86.5	88.4	active
56	AK7	100	98.1	inactive
57	SRPK3	105	107	inactive
58	BMPR1B	117	109	inactive
59	FGFR2	104	104	inactive
60	DLG3	97.4	93.6	inactive
61	SRPK1	128	111	inactive
62	MAP2K2	107	104	inactive
63	DGUOK	100	100	inactive
64	TEX14	90.4	87.4	inactive
65	CAMK2D	98.6	98.7	inactive
66	CLK3	99	100	inactive
67	CDK10	105	103	inactive
68	PANK3	104	102	inactive
69	CERT1	99.8	99.8	inactive
